From article PMC10042835, “Phytochrome B photobodies are comprised of phytochrome B and its primary and secondary interacting proteins” (Nature Communications, 2023)
Results are given in words; binding and its absence hold for the method and conditions named. Binding calls can cover weak binding; strength is not graded here. For part of these data: Sequences can lack the tags named with a protein.

The chains behind the UniProt entries cited, without tags or fusion partners. Where a name states a change or a piece, a line headed by the entry shows the natural chain unless it says otherwise.
UniProt P14713: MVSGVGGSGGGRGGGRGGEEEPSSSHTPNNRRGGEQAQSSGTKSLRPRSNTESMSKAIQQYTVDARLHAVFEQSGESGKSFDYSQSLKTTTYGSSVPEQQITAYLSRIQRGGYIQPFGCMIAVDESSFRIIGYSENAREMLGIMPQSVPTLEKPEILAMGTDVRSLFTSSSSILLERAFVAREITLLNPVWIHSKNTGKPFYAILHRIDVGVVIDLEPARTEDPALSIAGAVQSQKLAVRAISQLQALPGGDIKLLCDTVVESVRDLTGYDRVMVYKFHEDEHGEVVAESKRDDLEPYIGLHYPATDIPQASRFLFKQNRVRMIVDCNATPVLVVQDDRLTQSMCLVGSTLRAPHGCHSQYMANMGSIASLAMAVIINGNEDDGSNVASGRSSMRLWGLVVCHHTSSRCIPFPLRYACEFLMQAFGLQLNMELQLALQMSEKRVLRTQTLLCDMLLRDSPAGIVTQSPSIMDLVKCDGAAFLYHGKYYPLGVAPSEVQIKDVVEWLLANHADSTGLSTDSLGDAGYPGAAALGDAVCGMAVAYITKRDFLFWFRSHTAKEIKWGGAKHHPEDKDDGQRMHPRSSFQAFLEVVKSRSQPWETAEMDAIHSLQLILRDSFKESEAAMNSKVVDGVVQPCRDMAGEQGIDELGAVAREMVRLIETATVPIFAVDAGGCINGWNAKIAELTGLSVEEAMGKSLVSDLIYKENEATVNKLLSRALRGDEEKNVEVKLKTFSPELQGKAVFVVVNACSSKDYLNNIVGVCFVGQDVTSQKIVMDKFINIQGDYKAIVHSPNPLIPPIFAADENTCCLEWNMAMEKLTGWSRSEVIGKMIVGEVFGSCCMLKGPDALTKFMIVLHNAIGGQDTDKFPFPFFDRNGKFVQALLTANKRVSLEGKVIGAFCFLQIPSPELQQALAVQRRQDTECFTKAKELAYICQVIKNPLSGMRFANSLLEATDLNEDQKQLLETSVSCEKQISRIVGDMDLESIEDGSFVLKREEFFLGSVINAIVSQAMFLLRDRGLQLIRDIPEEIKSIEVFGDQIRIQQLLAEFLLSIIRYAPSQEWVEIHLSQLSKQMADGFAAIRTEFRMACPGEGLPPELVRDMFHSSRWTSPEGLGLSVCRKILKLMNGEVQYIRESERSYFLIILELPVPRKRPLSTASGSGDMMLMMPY
UniProt Q9FIX7: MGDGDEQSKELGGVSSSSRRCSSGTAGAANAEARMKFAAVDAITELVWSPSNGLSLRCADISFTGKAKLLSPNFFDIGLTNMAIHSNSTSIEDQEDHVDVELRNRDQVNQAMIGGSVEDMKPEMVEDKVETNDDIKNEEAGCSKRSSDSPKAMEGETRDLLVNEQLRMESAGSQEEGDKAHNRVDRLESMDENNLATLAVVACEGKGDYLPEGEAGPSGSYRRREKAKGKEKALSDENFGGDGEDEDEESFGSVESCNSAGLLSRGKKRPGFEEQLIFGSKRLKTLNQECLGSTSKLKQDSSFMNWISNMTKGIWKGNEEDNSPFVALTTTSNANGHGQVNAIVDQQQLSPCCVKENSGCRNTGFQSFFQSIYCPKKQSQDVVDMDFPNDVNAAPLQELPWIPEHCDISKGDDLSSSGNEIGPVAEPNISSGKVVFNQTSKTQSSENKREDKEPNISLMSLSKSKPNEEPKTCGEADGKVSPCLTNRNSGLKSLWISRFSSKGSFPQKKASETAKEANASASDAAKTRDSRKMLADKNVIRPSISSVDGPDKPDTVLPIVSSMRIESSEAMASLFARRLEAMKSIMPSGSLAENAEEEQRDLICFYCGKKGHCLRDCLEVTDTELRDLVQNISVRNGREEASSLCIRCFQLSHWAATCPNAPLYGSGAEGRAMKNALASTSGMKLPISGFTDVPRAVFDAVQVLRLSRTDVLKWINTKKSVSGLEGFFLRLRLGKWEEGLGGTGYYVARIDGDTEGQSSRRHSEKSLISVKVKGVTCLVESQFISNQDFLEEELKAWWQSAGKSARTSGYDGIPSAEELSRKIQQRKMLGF

Tests used:
[1] = molecular target: T1, TOPLESS fused to the GAL4 DNA binding domain (pGBKT7-TPL) (Arabidopsis thaliana) (UniProt Q94AI7); experiment: two-hybrid; TPL on the GAL4 DBD (pGBKT7), PCH1 or phyBC on the GAL4 AD (pGADT7); yeast AH109; growth on TDO with 5 mM 3-AT, 30 °C, 3 days
T1 sequence: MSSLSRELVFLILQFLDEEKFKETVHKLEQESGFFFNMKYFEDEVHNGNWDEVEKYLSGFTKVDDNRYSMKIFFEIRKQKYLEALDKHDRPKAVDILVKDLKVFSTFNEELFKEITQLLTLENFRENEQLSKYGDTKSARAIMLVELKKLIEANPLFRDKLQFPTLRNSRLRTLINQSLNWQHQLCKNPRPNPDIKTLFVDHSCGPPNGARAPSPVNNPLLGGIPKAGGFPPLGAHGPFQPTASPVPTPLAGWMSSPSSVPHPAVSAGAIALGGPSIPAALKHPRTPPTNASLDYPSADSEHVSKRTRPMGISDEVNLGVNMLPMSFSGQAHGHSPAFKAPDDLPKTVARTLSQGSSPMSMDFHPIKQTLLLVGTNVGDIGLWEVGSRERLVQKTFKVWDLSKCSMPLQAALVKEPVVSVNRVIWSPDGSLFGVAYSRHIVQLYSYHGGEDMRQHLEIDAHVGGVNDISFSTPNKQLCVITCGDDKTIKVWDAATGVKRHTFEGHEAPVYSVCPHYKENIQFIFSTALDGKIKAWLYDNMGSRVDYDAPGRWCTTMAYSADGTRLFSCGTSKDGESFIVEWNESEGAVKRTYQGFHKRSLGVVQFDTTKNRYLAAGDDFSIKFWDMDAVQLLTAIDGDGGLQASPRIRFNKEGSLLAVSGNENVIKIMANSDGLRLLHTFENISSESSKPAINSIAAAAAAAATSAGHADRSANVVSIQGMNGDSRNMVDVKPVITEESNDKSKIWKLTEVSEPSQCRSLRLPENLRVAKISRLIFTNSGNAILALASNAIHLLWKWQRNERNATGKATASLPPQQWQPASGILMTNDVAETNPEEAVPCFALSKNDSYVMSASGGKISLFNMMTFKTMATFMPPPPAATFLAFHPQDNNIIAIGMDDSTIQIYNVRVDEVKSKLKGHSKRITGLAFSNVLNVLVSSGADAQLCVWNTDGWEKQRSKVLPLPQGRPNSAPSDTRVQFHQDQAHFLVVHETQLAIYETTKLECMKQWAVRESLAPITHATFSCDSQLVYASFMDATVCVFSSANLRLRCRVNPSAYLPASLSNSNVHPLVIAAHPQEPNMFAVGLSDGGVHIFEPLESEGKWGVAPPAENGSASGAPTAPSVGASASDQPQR

[2] = molecular target: T2, GST-fused TOPLESS (GST-TPL) (Arabidopsis thaliana) (UniProt Q94AI7); experiment: pull-down; GST or GST fusions incubated with SBP-PCH1, pulled down with glutathione resin; 25 mM HEPES, 150 mM KCl, 1 mM DTT, pH 7.40, 30 min, room temperature, dark; anti-SBP and anti-GST blots; both purified
T2 sequence: T1 sequence

[3] = molecular target: phyB-GFP (Arabidopsis thaliana) (UniProt P14713); experiment: fluorescence-activated particle sorting of phyB-GFP photobodies with LC-MS/MS; photobodies sorted by green fluorescence (Alexa Fluor 488 anti-GFP antibody) from sonicated nuclei of PHYB-GFP leaves; proteins enriched over the pre-sorted nuclear extract by more than 2σ

## PCH1 fused to the GAL4 transactivation domain (pGADT7-PCH1) (Arabidopsis thaliana)
[1]
  binding: binds

## SBP-fused PCH1 (SBP-PCH1) (Arabidopsis thaliana)
[2]
  binding: binds

## TANDEM ZINC-FINGER-PLUS3 (TZP) (from UniProt Q9FIX7)
[3]
  binding: binds
